Drawing on article doi:10.1101/2025.07.29.665963, this text covers binding for two substances.

Sequences of proteins named here, by UniProt entry; tags and fusion partners are left off.
UniProt P50750: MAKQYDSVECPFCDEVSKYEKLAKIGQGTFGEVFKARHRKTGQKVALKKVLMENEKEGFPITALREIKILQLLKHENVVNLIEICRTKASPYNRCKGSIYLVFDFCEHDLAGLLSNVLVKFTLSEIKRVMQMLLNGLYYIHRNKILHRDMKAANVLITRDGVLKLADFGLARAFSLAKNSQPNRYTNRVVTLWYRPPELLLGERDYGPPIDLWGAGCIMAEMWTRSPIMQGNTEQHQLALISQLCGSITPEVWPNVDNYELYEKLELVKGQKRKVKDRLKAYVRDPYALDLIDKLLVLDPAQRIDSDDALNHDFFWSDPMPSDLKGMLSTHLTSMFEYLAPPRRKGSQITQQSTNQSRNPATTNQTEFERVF
UniProt O00472: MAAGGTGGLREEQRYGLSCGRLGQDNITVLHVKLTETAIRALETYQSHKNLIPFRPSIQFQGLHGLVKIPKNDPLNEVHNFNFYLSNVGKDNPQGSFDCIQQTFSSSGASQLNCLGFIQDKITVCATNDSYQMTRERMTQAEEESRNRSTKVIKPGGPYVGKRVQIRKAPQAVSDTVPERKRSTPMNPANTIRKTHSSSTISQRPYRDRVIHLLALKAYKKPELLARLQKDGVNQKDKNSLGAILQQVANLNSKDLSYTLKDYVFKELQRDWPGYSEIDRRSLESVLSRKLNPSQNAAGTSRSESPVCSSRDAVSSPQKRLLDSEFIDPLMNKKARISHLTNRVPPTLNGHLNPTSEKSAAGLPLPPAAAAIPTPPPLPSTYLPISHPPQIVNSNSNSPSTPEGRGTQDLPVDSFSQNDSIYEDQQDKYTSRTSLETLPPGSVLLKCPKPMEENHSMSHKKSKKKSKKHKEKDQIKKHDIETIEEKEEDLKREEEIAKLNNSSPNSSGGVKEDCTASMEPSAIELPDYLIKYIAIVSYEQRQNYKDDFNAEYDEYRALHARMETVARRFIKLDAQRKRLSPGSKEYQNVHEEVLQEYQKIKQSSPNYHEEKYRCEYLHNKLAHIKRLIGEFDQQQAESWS

Changes are numbered by the printed parent chain. Results are given in words; binding and its absence hold for the method and conditions named. In cells and extracts the contact can be indirect. Some results given as binding are weak or reduced against the parent protein; the word gives no strength. Where a sequence is shown, tags or fusion partners need not be part of it.

The target in one assay is T1, FLAG-ENL-T1 (human) (UniProt Q03111).
T1 sequence: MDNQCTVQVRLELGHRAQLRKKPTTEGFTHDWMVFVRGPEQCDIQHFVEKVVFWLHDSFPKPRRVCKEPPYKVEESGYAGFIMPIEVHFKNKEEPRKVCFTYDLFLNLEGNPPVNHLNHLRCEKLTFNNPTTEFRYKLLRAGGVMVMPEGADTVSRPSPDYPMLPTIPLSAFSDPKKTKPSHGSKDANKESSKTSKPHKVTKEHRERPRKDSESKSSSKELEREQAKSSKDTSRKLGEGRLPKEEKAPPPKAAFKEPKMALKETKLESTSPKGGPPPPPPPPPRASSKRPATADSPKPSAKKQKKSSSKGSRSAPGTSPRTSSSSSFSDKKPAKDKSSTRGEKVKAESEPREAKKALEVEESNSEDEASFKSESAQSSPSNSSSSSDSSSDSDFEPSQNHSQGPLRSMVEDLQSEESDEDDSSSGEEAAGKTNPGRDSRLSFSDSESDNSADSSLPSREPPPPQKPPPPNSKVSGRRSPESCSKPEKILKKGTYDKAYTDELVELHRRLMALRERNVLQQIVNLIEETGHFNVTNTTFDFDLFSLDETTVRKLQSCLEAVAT
The assay can be described thus: co-IP.

The target in the next assay is T2, FLAG-ENL-T1-3A (human) (UniProt Q03111).
T2 sequence: T1 sequence with K61A, R63A, K67A
Description: co-IP.

Regarding CDK9 (from UniProt P50750 1-372), the binding result with FLAG-ENL-T1 (human) and with FLAG-ENL-T1-3A (human) was “binds” throughout.

In the case of ELL2 (from UniProt O00472 1-640), the binding result in the assay with FLAG-ENL-T1 (human) and in the assay with FLAG-ENL-T1-3A (human) was “binds” in each case.
